Reference: article PMC3598691
No constants are given. Whether binding was seen depends on the method and setting. Binding seen in cells or lysates may run through a third protein. A result given as binding can be weak or reduced; the word gives no strength. Tags and fused reporters may be left off the sequences shown.

Key:
[1] = biological target: T1, FLAG-dADA2bL (Drosophila melanogaster) (UniProt Q8I8V0); experiment: co-IP; FLAG- and HA-tagged proteins co-expressed in S2 cells; lysis in RIPA buffer (150 mM NaCl, 1% NP-40, 0.5% SDS); lysates incubated overnight with anti-FLAG M2-agarose beads; five washes with TBST (400 mM NaCl, 1% Tween 20); blots with anti-HA and anti-FLAG
T1 sequence: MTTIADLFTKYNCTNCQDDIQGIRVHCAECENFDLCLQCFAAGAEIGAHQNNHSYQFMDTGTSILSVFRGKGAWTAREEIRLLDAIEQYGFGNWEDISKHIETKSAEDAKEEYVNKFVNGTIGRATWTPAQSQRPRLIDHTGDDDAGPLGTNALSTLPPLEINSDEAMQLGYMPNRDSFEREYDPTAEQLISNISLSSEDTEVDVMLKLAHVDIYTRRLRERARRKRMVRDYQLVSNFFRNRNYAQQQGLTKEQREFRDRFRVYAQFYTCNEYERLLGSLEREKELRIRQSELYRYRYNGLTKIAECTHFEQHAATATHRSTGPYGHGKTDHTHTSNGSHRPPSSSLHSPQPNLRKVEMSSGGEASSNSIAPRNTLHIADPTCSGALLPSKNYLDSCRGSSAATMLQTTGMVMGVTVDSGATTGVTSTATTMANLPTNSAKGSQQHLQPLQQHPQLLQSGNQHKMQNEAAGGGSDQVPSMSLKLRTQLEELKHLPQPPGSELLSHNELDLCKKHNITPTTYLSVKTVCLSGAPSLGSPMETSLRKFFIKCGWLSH

[2] = biological target: T2, FLAG-dADA2bS (Drosophila melanogaster) (UniProt Q8I8V0); experiment: as above
T2 sequence: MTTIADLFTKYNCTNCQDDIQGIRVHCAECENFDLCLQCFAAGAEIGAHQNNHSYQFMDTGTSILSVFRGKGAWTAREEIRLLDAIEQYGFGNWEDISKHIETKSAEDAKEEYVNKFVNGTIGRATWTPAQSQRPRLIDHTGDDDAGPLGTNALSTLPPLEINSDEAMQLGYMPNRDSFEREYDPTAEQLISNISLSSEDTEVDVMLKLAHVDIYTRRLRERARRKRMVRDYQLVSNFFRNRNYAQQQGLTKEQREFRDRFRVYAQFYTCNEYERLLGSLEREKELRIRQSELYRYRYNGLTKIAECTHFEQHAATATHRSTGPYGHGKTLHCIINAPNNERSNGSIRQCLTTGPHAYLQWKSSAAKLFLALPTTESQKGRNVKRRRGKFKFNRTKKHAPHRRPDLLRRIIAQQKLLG

Row | Substance | binding [1] | binding [2]
1 | HA-dp53 (Drosophila melanogaster) | binds | binds
2 | HA-dADA3 (Drosophila melanogaster) | binds | binds
